Among the data in doi:10.1101/2022.03.14.484294 are binding values, retold here.

The chains behind the UniProt entries cited, without tags or fusion partners.
UniProt P36404: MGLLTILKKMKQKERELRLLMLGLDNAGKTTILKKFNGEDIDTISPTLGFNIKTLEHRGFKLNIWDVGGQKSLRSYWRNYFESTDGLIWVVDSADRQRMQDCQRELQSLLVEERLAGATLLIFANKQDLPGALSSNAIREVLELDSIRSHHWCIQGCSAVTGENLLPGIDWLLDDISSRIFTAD

This assay concerns the target FLAG-tagged human PDE6D (human) (UniProt O43924). Put plainly: co-IP.

No constants are given. Whether binding was seen depends on the method and setting. Binding seen in cells or lysates may run through a third protein. Some entries that bind do so weakly or less than the wild type.

As to “ADP-ribosylation factor-like protein 2 (ARL2) (from UniProt P36404 1-184)”, the binding entry is reported as “binds”.
